From US20190248888A1, “METHODS OF LOWERING BLOOD GLUCOSE LEVELS” (Regeneron Pharmaceuticals, Inc., priority 2016, published 2019)
At least one compound was matched to its structure with a doubt left.

System: C57BL/6 mice
Assay: GCGR antibody with or without rapamycin in C57BL/6 mice: blood chemistry, islet cell mass
[1] = rapamycin 10 mg/kg daily + GCGR antibody 3 mg/kg, 21 days
[2] = rapamycin 10 mg/kg daily, 21 days

Structure (SMILES): CO[C@H]1C[C@@H]2CC[C@@H](C)[C@@](O)(O2)C(=O)C(=O)N2CCCC[C@H]2C(=O)O[C@H]([C@H](C)C[C@@H]2CC[C@@H](O)[C@H](OC)C2)CC(=O)[C@H](C)/C=C(\C)[C@@H](O)[C@@H](OC)C(=O)[C@H](C)C[C@H](C)/C=C/C=C/C=C/1C [rapamycin]
- effect of rapamycin on the GCGR-antibody induced increase in Slc38a5 mRNA expression (intact islets, rapamycin 10 mg/kg daily + GCGR antibody 3 mg/kg, 21 days): blocked
- α-cells expressing Slc38a5 detected (mice receiving GCGR-antibody and rapamycin): only a few
- effect of rapamycin on hyperglucagonemia (plasma glucagon increase) in GCGR-antibody treated mice [1]: did not block
- effect of rapamycin on the GCGR-antibody induced increase in α-cell mass [1]: effectively blocked
- effect of rapamycin on the ability of the GCGR-antibody to reduce blood glucose levels [1]: did not affect
- plasma amino acid levels, rapamycin in mice receiving the GCGR-antibody [1]: further increased
- effect of rapamycin on hyperglucagonemia (plasma glucagon increase) in GCGR-antibody treated mice (rapamycin 10 mg/kg daily + GCGR antibody 3 mg/kg, 21 days, listed as Rapamycin): did not affect
- plasma amino acid levels, rapamycin in control antibody treated mice [2]: did not affect
- α-cell size, rapamycin in control and GCGR-antibody treated mice [2]: reduced cell size equally
